Laboratory results published in article PMC4240632.
No constants are given. Whether binding was seen depends on the method and setting. Binding seen in cells or lysates may run through a third protein. For some assays here: Binding calls can cover weak binding; strength is not graded here.

How the values were obtained:
[1] = target: T1, dBRE1 (Drosophila (endogenous in embryos)) (UniProt Q9VRP9); assay: co-IP; Drosophila embryonic nuclear protein extracts; IP with antibodies against the endogenous proteins (dRYBP, SCE, dKDM2, dBRE1; reverse: PSC, PC, PH, E(Z)); Western blot; mock: pre-immune serum
T1 sequence: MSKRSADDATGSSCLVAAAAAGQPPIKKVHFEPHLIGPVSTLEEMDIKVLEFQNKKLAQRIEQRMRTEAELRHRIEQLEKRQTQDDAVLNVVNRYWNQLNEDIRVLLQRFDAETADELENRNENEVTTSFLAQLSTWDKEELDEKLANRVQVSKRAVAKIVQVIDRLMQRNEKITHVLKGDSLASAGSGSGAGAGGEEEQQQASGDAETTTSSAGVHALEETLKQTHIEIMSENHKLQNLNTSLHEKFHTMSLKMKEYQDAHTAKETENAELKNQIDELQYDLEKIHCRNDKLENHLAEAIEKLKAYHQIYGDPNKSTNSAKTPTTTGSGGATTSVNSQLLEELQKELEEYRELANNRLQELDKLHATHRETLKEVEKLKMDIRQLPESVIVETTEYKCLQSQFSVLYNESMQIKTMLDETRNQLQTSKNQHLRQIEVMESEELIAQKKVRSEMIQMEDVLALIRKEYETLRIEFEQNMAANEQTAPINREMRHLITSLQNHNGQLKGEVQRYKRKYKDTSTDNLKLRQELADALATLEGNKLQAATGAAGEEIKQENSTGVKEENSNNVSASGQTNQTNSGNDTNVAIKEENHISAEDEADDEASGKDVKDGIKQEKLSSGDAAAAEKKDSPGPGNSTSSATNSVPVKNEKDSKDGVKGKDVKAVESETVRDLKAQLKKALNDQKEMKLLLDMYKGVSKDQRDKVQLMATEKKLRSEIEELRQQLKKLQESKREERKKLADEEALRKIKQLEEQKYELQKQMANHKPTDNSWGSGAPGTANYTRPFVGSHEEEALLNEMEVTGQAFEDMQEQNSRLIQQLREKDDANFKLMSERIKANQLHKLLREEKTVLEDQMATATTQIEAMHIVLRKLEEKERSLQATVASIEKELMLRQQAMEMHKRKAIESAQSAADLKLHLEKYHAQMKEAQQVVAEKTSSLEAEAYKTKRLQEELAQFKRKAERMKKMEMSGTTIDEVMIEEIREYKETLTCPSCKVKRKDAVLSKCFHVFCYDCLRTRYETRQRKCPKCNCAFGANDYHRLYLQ

[2] = target: T2, Polycomb (Drosophila (endogenous in embryos)) (UniProt P26017); assay: as above
T2 sequence: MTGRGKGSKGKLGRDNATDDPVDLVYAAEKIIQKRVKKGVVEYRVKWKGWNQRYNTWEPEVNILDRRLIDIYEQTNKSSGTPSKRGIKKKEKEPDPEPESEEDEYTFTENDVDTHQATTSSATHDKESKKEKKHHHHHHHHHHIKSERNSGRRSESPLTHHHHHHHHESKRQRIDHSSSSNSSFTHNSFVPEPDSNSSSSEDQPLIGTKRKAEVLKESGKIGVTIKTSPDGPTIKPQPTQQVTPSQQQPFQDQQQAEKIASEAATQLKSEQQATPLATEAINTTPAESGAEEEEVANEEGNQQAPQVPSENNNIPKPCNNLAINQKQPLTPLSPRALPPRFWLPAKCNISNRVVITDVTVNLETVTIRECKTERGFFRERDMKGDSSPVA

[3] = target: T3, E(Z) (Drosophila (endogenous in embryos)) (UniProt Q9VDC6); assay: as above
T3 sequence: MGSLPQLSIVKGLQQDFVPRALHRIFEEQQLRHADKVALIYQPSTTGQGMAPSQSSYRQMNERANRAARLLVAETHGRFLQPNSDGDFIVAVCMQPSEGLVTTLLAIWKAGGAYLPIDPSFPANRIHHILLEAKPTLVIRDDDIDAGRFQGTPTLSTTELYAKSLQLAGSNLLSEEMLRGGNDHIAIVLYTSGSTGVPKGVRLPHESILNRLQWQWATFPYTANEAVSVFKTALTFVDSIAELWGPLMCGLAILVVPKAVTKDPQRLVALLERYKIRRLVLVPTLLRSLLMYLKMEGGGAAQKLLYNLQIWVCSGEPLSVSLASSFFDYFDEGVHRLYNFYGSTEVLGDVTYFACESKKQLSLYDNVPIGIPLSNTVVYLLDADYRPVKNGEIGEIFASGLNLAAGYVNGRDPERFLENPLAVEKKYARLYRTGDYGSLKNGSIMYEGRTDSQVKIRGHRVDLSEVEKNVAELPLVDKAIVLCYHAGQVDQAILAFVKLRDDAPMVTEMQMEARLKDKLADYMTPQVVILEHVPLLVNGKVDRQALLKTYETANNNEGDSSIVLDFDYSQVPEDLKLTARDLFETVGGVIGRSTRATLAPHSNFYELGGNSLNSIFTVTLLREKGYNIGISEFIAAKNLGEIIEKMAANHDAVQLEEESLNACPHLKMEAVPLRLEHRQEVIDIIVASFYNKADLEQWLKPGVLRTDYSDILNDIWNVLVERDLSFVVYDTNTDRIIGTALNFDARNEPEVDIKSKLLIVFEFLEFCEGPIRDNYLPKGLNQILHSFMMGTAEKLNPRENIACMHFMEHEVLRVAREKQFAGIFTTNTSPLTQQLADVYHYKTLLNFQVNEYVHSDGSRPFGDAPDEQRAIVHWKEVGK

[4] = target: dRYBP (Drosophila (endogenous in embryos)); assay: as above
dRYBP-GST (Drosophila) = assay: pull-down; dRYBP-GST or dRYBPΔNZF-GST as bait; Drosophila embryonic nuclear protein extracts; Western blot; mock: protein-GST; only the target purified
[5] = target: dRYBPΔNZF-GST (Drosophila); assay: as above

dKDM2 (Drosophila (endogenous in embryos))
binding [1]: no binding

dRYBP (Drosophila (endogenous in embryos))
binding [2]: no binding | binding [3]: no binding

B1: SCE (protein, UniProt Q9VB08 1-435)
chain: MTSLDPAPNKTWELSLYELQRKPQEVITDSTEIAVSPRSLHSELMCPICLDMLKKTMTTKECLHRFCSDCIVTALRSGNKECPTCRKKLVSKRSLRADPNFDLLISKIYPSREEYEAIQEKVMAKFNQTQSQQALVNSINEGIKLQSQNRPQRFRTKGGGGGGGGGGNGNGAANVAAPPAPGAPTAVGRNASNQMHVHDTASNDSNSNTNSIDRENRDPGHSGTSAASAITSASNAAPSSSANSGASTSATRMQVDDASNPPSVRSTPSPVPSNSSSSKPKRAMSVLTSERSEESESDSQMDCRTEGDSNIDTEGEGNGELGINDEIELVFKPHPTEMSADNQLIRALKENCVRYIKTTANATVDHLSKYLAMRLTLDLGADLPEACRVLNFCIYVAPQPQQLVILNGNQTLHQVNDKFWKVNKPMEMYYSWKKT
binding [4]: binds | binding (dRYBP-GST (Drosophila)): binds | binding [5]: binds

B2: dBRE1 (protein, UniProt Q9VRP9 1-1044)
chain: MSKRSADDATGSSCLVAAAAAGQPPIKKVHFEPHLIGPVSTLEEMDIKVLEFQNKKLAQRIEQRMRTEAELRHRIEQLEKRQTQDDAVLNVVNRYWNQLNEDIRVLLQRFDAETADELENRNENEVTTSFLAQLSTWDKEELDEKLANRVQVSKRAVAKIVQVIDRLMQRNEKITHVLKGDSLASAGSGSGAGAGGEEEQQQASGDAETTTSSAGVHALEETLKQTHIEIMSENHKLQNLNTSLHEKFHTMSLKMKEYQDAHTAKETENAELKNQIDELQYDLEKIHCRNDKLENHLAEAIEKLKAYHQIYGDPNKSTNSAKTPTTTGSGGATTSVNSQLLEELQKELEEYRELANNRLQELDKLHATHRETLKEVEKLKMDIRQLPESVIVETTEYKCLQSQFSVLYNESMQIKTMLDETRNQLQTSKNQHLRQIEVMESEELIAQKKVRSEMIQMEDVLALIRKEYETLRIEFEQNMAANEQTAPINREMRHLITSLQNHNGQLKGEVQRYKRKYKDTSTDNLKLRQELADALATLEGNKLQAATGAAGEEIKQENSTGVKEENSNNVSASGQTNQTNSGNDTNVAIKEENHISAEDEADDEASGKDVKDGIKQEKLSSGDAAAAEKKDSPGPGNSTSSATNSVPVKNEKDSKDGVKGKDVKAVESETVRDLKAQLKKALNDQKEMKLLLDMYKGVSKDQRDKVQLMATEKKLRSEIEELRQQLKKLQESKREERKKLADEEALRKIKQLEEQKYELQKQMANHKPTDNSWGSGAPGTANYTRPFVGSHEEEALLNEMEVTGQAFEDMQEQNSRLIQQLREKDDANFKLMSERIKANQLHKLLREEKTVLEDQMATATTQIEAMHIVLRKLEEKERSLQATVASIEKELMLRQQAMEMHKRKAIESAQSAADLKLHLEKYHAQMKEAQQVVAEKTSSLEAEAYKTKRLQEELAQFKRKAERMKKMEMSGTTIDEVMIEEIREYKETLTCPSCKVKRKDAVLSKCFHVFCYDCLRTRYETRQRKCPKCNCAFGANDYHRLYLQ
binding [4]: binds | binding (dRYBP-GST (Drosophila)): binds | binding [5]: binds

B3: Polycomb (protein, UniProt P26017 1-390)
chain: MTGRGKGSKGKLGRDNATDDPVDLVYAAEKIIQKRVKKGVVEYRVKWKGWNQRYNTWEPEVNILDRRLIDIYEQTNKSSGTPSKRGIKKKEKEPDPEPESEEDEYTFTENDVDTHQATTSSATHDKESKKEKKHHHHHHHHHHIKSERNSGRRSESPLTHHHHHHHHESKRQRIDHSSSSNSSFTHNSFVPEPDSNSSSSEDQPLIGTKRKAEVLKESGKIGVTIKTSPDGPTIKPQPTQQVTPSQQQPFQDQQQAEKIASEAATQLKSEQQATPLATEAINTTPAESGAEEEEVANEEGNQQAPQVPSENNNIPKPCNNLAINQKQPLTPLSPRALPPRFWLPAKCNISNRVVITDVTVNLETVTIRECKTERGFFRERDMKGDSSPVA
binding [4]: no binding

B4: E(Z) (protein, UniProt Q9VDC6 1-879)
chain: MGSLPQLSIVKGLQQDFVPRALHRIFEEQQLRHADKVALIYQPSTTGQGMAPSQSSYRQMNERANRAARLLVAETHGRFLQPNSDGDFIVAVCMQPSEGLVTTLLAIWKAGGAYLPIDPSFPANRIHHILLEAKPTLVIRDDDIDAGRFQGTPTLSTTELYAKSLQLAGSNLLSEEMLRGGNDHIAIVLYTSGSTGVPKGVRLPHESILNRLQWQWATFPYTANEAVSVFKTALTFVDSIAELWGPLMCGLAILVVPKAVTKDPQRLVALLERYKIRRLVLVPTLLRSLLMYLKMEGGGAAQKLLYNLQIWVCSGEPLSVSLASSFFDYFDEGVHRLYNFYGSTEVLGDVTYFACESKKQLSLYDNVPIGIPLSNTVVYLLDADYRPVKNGEIGEIFASGLNLAAGYVNGRDPERFLENPLAVEKKYARLYRTGDYGSLKNGSIMYEGRTDSQVKIRGHRVDLSEVEKNVAELPLVDKAIVLCYHAGQVDQAILAFVKLRDDAPMVTEMQMEARLKDKLADYMTPQVVILEHVPLLVNGKVDRQALLKTYETANNNEGDSSIVLDFDYSQVPEDLKLTARDLFETVGGVIGRSTRATLAPHSNFYELGGNSLNSIFTVTLLREKGYNIGISEFIAAKNLGEIIEKMAANHDAVQLEEESLNACPHLKMEAVPLRLEHRQEVIDIIVASFYNKADLEQWLKPGVLRTDYSDILNDIWNVLVERDLSFVVYDTNTDRIIGTALNFDARNEPEVDIKSKLLIVFEFLEFCEGPIRDNYLPKGLNQILHSFMMGTAEKLNPRENIACMHFMEHEVLRVAREKQFAGIFTTNTSPLTQQLADVYHYKTLLNFQVNEYVHSDGSRPFGDAPDEQRAIVHWKEVGK
binding [4]: no binding
